Experimental data: PubChem BioAssay AID2551 (National Center for Advancing Translational Sciences (NCATS), 2010)
Values joined by “and” are separate entries in the source; they are usually repeats but may differ in a detail not shown here. Identical values can stand only once. The campaign covered roughly 310,000 compounds. About 17,000 (5.5%) were called active. The inconclusive results got no clear call from the source; some entries with a clear call stand among them for comparison. Calls follow the shape of the dose curve; as a rule, active = well fitted inhibition curve with a large enough effect; inconclusive = small, poorly fitted or top-dose-only effect, or effect the other way; inactive = no such curve, though single readings can be large or run the other way. A potency beside an inconclusive call is a rough fit, not a confirmed value.

Amino acid sequences for entries named in this document (tags omitted). A change or cut given only in a name is not applied to a line headed by its entry.
UniProt P51450: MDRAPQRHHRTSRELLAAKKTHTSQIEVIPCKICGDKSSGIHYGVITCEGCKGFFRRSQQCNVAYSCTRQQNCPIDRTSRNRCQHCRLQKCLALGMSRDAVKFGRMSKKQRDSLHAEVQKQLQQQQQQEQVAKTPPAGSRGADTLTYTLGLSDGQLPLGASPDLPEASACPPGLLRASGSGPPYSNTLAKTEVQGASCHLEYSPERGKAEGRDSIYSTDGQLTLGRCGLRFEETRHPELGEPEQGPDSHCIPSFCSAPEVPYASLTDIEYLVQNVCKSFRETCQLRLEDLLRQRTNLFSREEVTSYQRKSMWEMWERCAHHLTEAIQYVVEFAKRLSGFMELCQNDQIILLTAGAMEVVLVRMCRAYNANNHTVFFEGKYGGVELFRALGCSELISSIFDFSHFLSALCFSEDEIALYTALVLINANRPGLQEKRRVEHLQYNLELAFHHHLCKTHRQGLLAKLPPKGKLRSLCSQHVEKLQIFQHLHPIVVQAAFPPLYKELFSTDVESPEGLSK

What follows are compounds tested against Nuclear receptor ROR-gamma (Mus musculus) (UniProt P51450) (assay: qHTS for inhibitors of ROR gamma transcriptional activity). Settings: Drosophila S2 Gal4-RORgamma UAS-luciferase reporter, 20 h; activity change, negative = inhibition: at 53.6 µM (top of the series).
Summary of the method: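 A Gal4/UAS one-hybrid system in insect cells: metallothionein-promoter Gal4–ROR gamma fusion plus Photinus luciferase reporter. Copper sulfate 700 uM final, 20 hr ambient incubation, luminescent detection after 10 min with reagent.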
% is scaled to controls: 0 for no effect and ±100 for the full control effect; potency is read from the fitted curve at half-maximal effect.
Also: nearly all actives have a fitted effect of over 60% in size.

SMILES | Potency | activity change, negative = inhibition
Cc1ccccc1-c1nc(Nc2ccncc2)c2ccccc2n1 | active: 7.08 µM | 
Cc1cccc2sc(N(CCN(C)C)C(=O)/C=C/c3cccs3)nc12 | inconclusive: 35.5 µM [inhibitor, single point] | 
CC(=O)N1CCN(c2ccc(NC(=O)c3ccc(Cl)c(Cl)c3)cc2)CC1 | inconclusive: 12.6 µM [activator, partial curve] | 
C=C(N(C)C)[C@]1(C)C[C@H]1[C@H](NC(=O)CNC(=O)OCc1ccccc1)c1ccccc1 |  | inactive: -18.9%
COc1ccc(CCNC(=O)c2cc(S(=O)(=O)N3CCCCC3)c[nH]2)cc1OC |  | inactive: -19.2%
CCN(Cc1ccccc1)c1ccc(/C=N/N=C(N)N)cc1 | inconclusive: 20 µM [inhibitor, single point] | 
Cc1ccc(-c2nc(N)sc2CC(=O)OCC(=O)NCC2CCCO2)cc1 (stereo not drawn) | inconclusive: 3.16 µM [activator, full curve, poor fit] | 
Cc1cccc(NC(=S)Nc2ccc(Oc3ccccc3)cc2)n1 |  | inactive: 8.95%
CCCCNc1cc(C)nc(NCc2ccccc2)n1 | inconclusive: 0.891 µM [activator, partial curve, poor fit] | 
COCCn1nnnc1C(c1ccccc1)N1CCN(Cc2ccc3c(c2)OCO3)CC1 (stereo not drawn) | inconclusive: 2.24 µM [inhibitor, full curve] | 
CCCCOc1cccc(C(=O)NC(=S)Nc2ccc(Cl)c(C(=O)O)c2)c1 |  | inactive: 17.8%
Cc1nn(-c2ccccc2)c(Cl)c1C(=O)NCc1cccs1 | inconclusive: 35.5 µM [activator, single point] | 
CC(C)=NN/C(N)=N/C(=S)Nc1ccc(C)cc1 | inconclusive: 6.31 µM [inhibitor, partial curve] | 
NS(=O)(=O)c1ccccc1 |  | inactive: 2.03%
CCCn1c(CN(C)Cc2ccccc2)nc2c1c(=O)n(C)c(=O)n2C | inconclusive: 11.2 µM [activator, partial curve] | 
Cc1cc(C)nc(Sc2ncnc3c2oc2ccccc23)n1 |  | inactive: -23.2%
N#Cc1c(NC(=O)CSc2nc(-c3ccccc3)cc(C(F)(F)F)n2)sc2c1CCC2 |  | inactive: -5.55% [at 10 µM]
Cc1cc2c(c(=O)n1Cc1ccc3c(c1)OCO3)C(c1cccnc1)C(C#N)=C(N)O2 (stereo not drawn) | inconclusive: 15.8 µM [activator, single point] | 
CCc1ccc(OCC(=O)Nc2ccc(S(=O)(=O)Nc3cc(C)on3)cc2)c(Br)c1 | inconclusive: 31.6 µM [activator, single point] | 
CC1(C)c2ccccc2N2CCC(=O)NC21/C=C/c1ccco1 (stereo not drawn) |  | inactive: -27.1%
Cc1cc(C(C)(C)C)oc1C(=O)N(CC(=O)NC1CCCC1)c1ccc(F)cc1 |  | inactive: 5.72%
CCN(c1ccccc1)S(=O)(=O)c1ccc(Cl)c(NC(=O)COC(=O)c2ccc(O)cc2)c1 | inconclusive: 15.8 µM [activator, partial curve] | 
O=C(Nc1nnc(-c2ccccc2)o1)c1cccc(N2C(=O)CCC2=O)c1 | active: 2.51 µM | 
Cc1nc2sc(C(c3cccc(F)c3)N3CCN(C(=O)c4ccco4)CC3)c(O)n2n1 (stereo not drawn) | inconclusive: 17.8 µM [inhibitor, single point] | 
CN(C)c1cccc(C(=O)OCCNC(=O)c2cccc(S(=O)(=O)N3CCOCC3)c2)c1 | inconclusive: 5.62 µM [activator, single point] | 

SMILES | Potency | activity change, negative = inhibition
Cc1ccc(OCc2nc(-c3ccccn3)n[nH]2)cc1 | active: 3.16 µM | 
CC(C)N1CC(C(=O)Nc2nc3ccccc3s2)CC1=O (stereo not drawn) | inconclusive: 35.5 µM [activator, single point] | 
O=C(O)C1C2C=CC(C2)C1C(=O)NCCc1cccc(Cl)c1 (stereo not drawn) | inconclusive: 6.31 µM [inhibitor, partial curve] | 
CC1(C)C(=O)NCCN1C(=O)c1ccc2nc(Cc3ccccc3F)oc2c1 | inconclusive: 22.4 µM [activator, single point] | 
CC(C)c1ccc(-c2noc(C3CCCN(C(=O)c4ccc(F)cc4F)C3)n2)cc1 (stereo not drawn) | inconclusive: 17.8 µM [inhibitor, single point] | 
Nc1cc2nc[nH]c2cc1N | inconclusive: 20 µM [activator, single point] | 
CCCCOn1c(C)c(C(C)=O)c2c3no[n+]([O-])c3ccc21 |  | inactive: 19.1%
CCn1ncc(Br)c1C(=O)Nc1nccs1 | active: 12.6 µM | 
Cc1cccc(C(=O)NNC(=O)c2ccc(S(=O)(=O)N3CCOCC3)cc2)c1 |  | inactive: 13.3%
CCC[C@@H]1C[C@@]1(CCC)[C@@H](NP(=O)(c1ccccc1)c1ccccc1)c1ccc(C(=O)OC)cc1 | inactive and inconclusive: 31.6 µM [activator, single point] | 
CC1CCN(c2nc3c(c(=O)[nH]c(=O)n3C)n2Cc2ccccc2Cl)CC1 | inconclusive: 7.08 µM [activator, partial curve] | 
COc1cccc(C(=O)/C=C/Nc2ccc(S(=O)(=O)Nc3ccc(C(C)=O)cc3)cc2)c1 | inconclusive: 0.708 µM [activator, full curve] | 
O=C1NC(=S)N/C1=C\c1cccnc1 | active: 2 µM | 
COc1ccc(-c2nnc(-c3ccccc3)o2)cc1OC | inconclusive: 2.82 µM [activator, full curve] | 
CC1Cc2ccccc2N1C(=O)CN1CCc2ccccc2C1 (stereo not drawn) | inconclusive: 5.62 µM [inhibitor, single point] | 
O=C(N/N=C/c1ccc(N2CCOCC2)cc1)C1CC1 | inconclusive: 3.98 µM [activator, full curve] | 
CCc1nc(SCC(=O)Nc2ccnc3ccccc23)n[nH]1 | inconclusive: 35.5 µM [activator, single point] | 
CCCN(CCC)Cc1c(C(=O)N/N=C/c2ccc(C)o2)nnn1-c1nonc1N | inconclusive: 35.5 µM [inhibitor, single point] | 
Nc1c2c(nc3sc4c(c13)CCCCC4)CCCCC2 | inconclusive: 35.5 µM [inhibitor, single point] | 
O=C(COC(=O)c1cccnc1Nc1cccc(C(F)(F)F)c1)NC1CCS(=O)(=O)C1 (stereo not drawn) | inconclusive: 20 µM [activator, single point] | 
Cc1c(Cl)cccc1NC(=S)N(CCN(C)C)C(C)c1ccco1 (stereo not drawn) | inconclusive: 15.8 µM [inhibitor, single point] | 
O=C(CSc1ccc(-c2cccs2)nn1)N1CCCCCC1 | inconclusive: 12.6 µM [activator, partial curve] | 
CCOC(=O)c1c(-c2ccccc2)nnn1-c1nc(OCC)nc(N2CCCCC2)n1 | inconclusive: 14.1 µM [activator, single point] | 
CC(C)(C)C1CCC(=NNc2ncc(C(F)(F)F)cc2Cl)CC1 (stereo not drawn) | active: 28.2 µM | 
Cc1c(Cl)cccc1NC(=O)N1CCCN(c2nc(-c3ccccc3)ns2)CC1 |  | inactive: 10.6%

SMILES | Potency | activity change, negative = inhibition
CCc1ccc(NC(=O)N2CCN(c3ccccc3)CC2)cc1 | inconclusive: 10 µM [activator, partial curve] | 
CCCc1[nH]nc2c1C(c1ccc(Br)s1)C(C#N)=C(N)O2 (stereo not drawn) | active: 12.6 µM | 
O=S1CC/C(=N\O)c2ccccc21 (stereo not drawn) | inconclusive: 5.62 µM [inhibitor, full curve] | 
CCC(C(=O)C(C)C(O)C(C)CCc1ccc(C)c(O)c1C(=O)O)C1OC(CC)(C2CC[C@@](O)(CC)C(C)O2)CC1C (stereo partly drawn) | inconclusive: 3.16 µM [inhibitor, single point] | 
CCn1c(=O)cc(OCC(=O)N2CCCC2)c2ccccc21 |  | inactive: -0.888%
COc1ccc(C(=O)NCC(c2cccnc2)N2CCN(c3ccc(F)cc3)CC2)cc1OC (stereo not drawn) | inconclusive: 22.4 µM [activator, single point] | 
CCNc1nc(NCC)nc(SCCOC(=O)Nc2ccccc2)n1 | inconclusive: 12.6 µM [activator, partial curve] | 
Cc1ccccc1-n1c2nc(=O)n(C)c(=O)c-2cc2ccccc21 |  | inactive: -2.94%
O=C(/C=C/c1cc(Br)ccc1O)c1ccco1 | inconclusive: 14.1 µM [inhibitor, single point] | 
C/C(=N\NC(=O)CSCc1ccc(Cl)cc1)c1ccc2c(c1)OCCO2 | inconclusive: 11.2 µM [activator, partial curve] | 
COc1ccc(C(=O)Nc2nnc(CC(=O)N/N=C/c3ccc(O)cc3O)s2)cc1 |  | inactive: -11.8%
Cc1ccc(-c2ccc(/C=N/NC(N)=S)o2)cc1 | active: 0.562 µM | 
CC(C)SCc1cc(N2CCCC2)nc(-c2ccccc2)n1 | active: 12.6 µM | 
O=C(ONC1=NCCCCC1)c1ccc([N+](=O)[O-])cc1 | active: 10 µM | 
CN(C)c1ccc(NC(=S)NCC2CCCO2)cc1 (stereo not drawn) | inconclusive: 35.5 µM [inhibitor, single point] | 
COc1cc(/C=N/NC(=O)c2cccc([N+](=O)[O-])c2)ccc1OCc1ccc(C)cc1 | active: 2.51 µM | 
Cc1ncc(CO)c(/C=N/NC(=S)Nc2ccc(Cl)c(Cl)c2)c1O |  | inactive: -38.2%
Cc1nnc(NC(=O)CSc2nnc(Cc3cccn3C)n2-c2cccc(C)c2C)s1 | inconclusive: 10 µM [activator, partial curve] | 
c1ccc(N2CCN(c3cnccn3)CC2)nc1 | inconclusive: 6.31 µM [inhibitor, single point] | 
CCCN1C(=O)c2ccccc2NC1c1ccc(OC)cc1O (stereo not drawn) |  | inactive: 16.4%
O=S(Cc1ccc(Br)cc1)Cc1nnc(SCc2ccc(Cl)cc2)n1-c1ccccc1 (stereo not drawn) | inconclusive: 12.6 µM [activator, partial curve] | 
CCOC(=O)c1c(C)nc2ccccn12 |  | inactive: -7.32% [at 10 µM]
COc1ccc(S(=O)(=O)N(C)CC(=O)NC2CCCCC2)cc1Cl |  | inactive: 3.76%
